The list is a part of this screen's results and no random one: it is rich in T/C values a quarter to a half above the control, in often repeated tests (any T/C) and in doses without a T/C. Further doses and runs are listed elsewhere. T/C is the treated group as % of the vehicle group. Some entries give survivors of the animals treated and no T/C: the source holds a T/C of zero for them, seemingly a mark for toxic or unscored doses. Some survivor counts are full or nearly so, which does not show that the dose was tolerated: survival well below the control is almost never listed, so the zero probably covers shortened survival too. Counts of survivors are from the toxicity check (mostly the fifth day) where no day follows; animals may have died later. Schedules are NCI's codes, read here as Q, the interval in days (D) or hours (H), X, the number of doses. Where survival is the endpoint, the PubChem record calls one and a half times the control and up active, and a quarter to a half above the control has no call in these data; cut-offs in other NCI protocols can differ. Some doses were run more than once; the results are listed from low to high.

Results on 27 molecules are retold here after PubChem BioAssay AID330 (DTP/NCI, 2004).

The subject of the test is P388 leukemia ip, CD2F1 mice, survival T/C. Kind of test: NCI In Vivo Anticancer Drug Screen. Data for tumor model P388 Leukemia (intraperitoneal) in CD2F1 (CDF1) mice. The conditions noted are these: T/C endpoint: median survival time, higher T/C = longer survival.
Setting [1] is: dose: 50.0 mg/kg/injection, schedule: Q01DX009 (ip), vehicle: saline.
Setting [2] is: dose: 400.0 mg/kg/injection, schedule: Q04DX002 (ip), vehicle: saline with Tween-80.
The mark [3] stands for this setting: dose: 200.0 mg/kg/injection, schedule: Q01DX005 (ip), vehicle: Klucel (hydroxypropylcellulose) (HPC).
[4] abbreviates: dose: 12.5 mg/kg/injection, schedule: Q01DX005 (ip), vehicle: Klucel (hydroxypropylcellulose) (HPC).
Setting [5] is: dose: 50.0 mg/kg/injection, schedule: Q01DX005 (ip), vehicle: Klucel (hydroxypropylcellulose) (HPC).
Where [6] appears, read: dose: 100.0 mg/kg/injection, schedule: Q01DX005 (ip), vehicle: Klucel (hydroxypropylcellulose) (HPC).
Setting [7] is: dose: 200.0 mg/kg/injection, schedule: Q04DX002 (ip), vehicle: Klucel (hydroxypropylcellulose) (HPC).
[8] abbreviates: dose: 200.0 mg/kg/injection, schedule: Q01DX009 (ip), vehicle: saline with Tween-80.
[9] abbreviates: dose: 50.0 mg/kg/injection, schedule: Q01DX009 (ip), vehicle: saline with Tween-80.
The mark [10] stands for this setting: dose: 100.0 mg/kg/injection, schedule: Q01DX009 (ip), vehicle: saline with Tween-80.

As for `O=S1(=O)C2C=CCCC1C=C2` (stereo unspecified), the survivor count is, setting by setting: under setting [1], 6 of 6; (dose: 100.0 mg/kg/injection, schedule: Q01DX009 (ip), vehicle: saline) 4 of 6.

For the molecule `C=C1C(=O)OC2/C=C(\C)C(=O)CC3OC(C)(C)OC3(C)CC(OC(=O)/C(C)=C/C)C12` (stereo unspecified), where the note is “dose: 80.0 mg/kg/injection, schedule: Q01DX009 (ip), vehicle: saline with Tween-80”, the survivor count was 6 of 6.

Regarding `O=C(Oc1cccc2cccnc12)c1ccc2ccccc2n1`, the survivor count under setting [2] was 4 of 6.

Turning to `C[O+]=c1cccc2sc(-c3ccccc3)ccc1-2`, under setting [3], the survivor count is 0 of 6.

As for `CCC[CH2][Sn]([Cl])([CH2]CCC)[S]/C(C#N)=N/N=C/c1ccc(N(C)C)cc1`, the survivor count is, setting by setting: (dose: 30.0 mg/kg/injection, schedule: Q01DX005 (ip), vehicle: saline with Tween-80) 3 of 6; (dose: 60.0 mg/kg/injection, schedule: Q01DX005 (ip), vehicle: saline with Tween-80) 0 of 6; (dose: 120.0 mg/kg/injection, schedule: Q01DX005 (ip), vehicle: saline with Tween-80) 3 of 6; (dose: 240.0 mg/kg/injection, schedule: Q01DX005 (ip), vehicle: saline with Tween-80) 0 of 6.

On to `c1ccc2c(C[Se][Se]Cc3cccc4ccccc34)cccc2c1`, for which the survivor count (dose: 50.0 mg/kg/injection, schedule: Q01DX009 (ip), vehicle: Klucel (hydroxypropylcellulose) (HPC)) is given as 6 of 6.

As to `O=[N+]([O-])c1nccn1CC(O)CO` (stereo unspecified), the T/C (dose: 400.0 mg/kg/injection, schedule: Q01DX009 (ip), vehicle: saline) is 143 % of control.

`CCOc1c(N=Nc2ccc(Br)cc2)c(C)nn1C(=S)S`: the survivor count (dose: 240.0 mg/kg/injection, schedule: Q01DX005 (ip), vehicle: Klucel (hydroxypropylcellulose) (HPC)) is 6 of 6.

For the molecule `CCN(CC)CCCNc1cnc2ccc(OC)cc2n1`, the survivor count is on record as 3 of 6 (dose: 100.0 mg/kg/injection, schedule: Q04DX003 (ip), vehicle: saline); 1 of 6 (dose: 200.0 mg/kg/injection, schedule: Q04DX003 (ip), vehicle: saline); 0 of 6 (dose: 400.0 mg/kg/injection, schedule: Q04DX003 (ip), vehicle: saline).

Take `COC(=O)C(CO)NC(=O)OCc1ccccc1` (stereo unspecified): the survivor count (dose: 400.0 mg/kg/injection, schedule: Q01DX005 (ip), vehicle: water) is 2 of 6.

With `COc1cc2c(cc1O)Cc1c-2[n+](C)cc2cc(OC)c(OC)cc12`, the T/C was 130 % of control under setting [4]; 138 % of control (dose: 25.0 mg/kg/injection, schedule: Q01DX005 (ip), vehicle: Klucel (hydroxypropylcellulose) (HPC)); 132 and 149 % of control under setting [5]; 125 % of control (dose: 50.0 mg/kg/injection, schedule: Q04DX002 (ip), vehicle: Klucel (hydroxypropylcellulose) (HPC)); 128 % of control under setting [6]; 137 % of control (dose: 100.0 mg/kg/injection, schedule: Q04DX002 (ip), vehicle: Klucel (hydroxypropylcellulose) (HPC)). For the same molecule, the T/C under setting [7] was 145 % of control. In addition, the survivor count runs as follows: under setting [7], 0 of 6; (dose: 400.0 mg/kg/injection, schedule: Q04DX002 (ip), vehicle: Klucel (hydroxypropylcellulose) (HPC)) 0 of 5.

On to `CCCCCCCCCCCCCCCCS(=O)(=O)c1ccc(S(=O)(=O)N/N=c2/sc3ccccc3n2C)cc1C(=O)O`, for which the survivor count runs as follows: under setting [1], 5 of 6; (dose: 200.0 mg/kg/injection, schedule: Q01DX009 (ip), vehicle: saline) 3 of 6.

As for `N#CCN(CNC(=O)c1ccccc1)N=O`, under setting [2], the survivor count is reported as 2 of 6.

Consider `COc1ccc(C=C2C(=O)C=CC2=O)cc1O`, for which the survivor count is on record as 0 of 6 (dose: 25.0 mg/kg/injection, schedule: Q04DX002 (ip), vehicle: saline with Tween-80); 0 of 6 (dose: 50.0 mg/kg/injection, schedule: Q04DX002 (ip), vehicle: saline with Tween-80); 0 of 6 (dose: 100.0 mg/kg/injection, schedule: Q04DX002 (ip), vehicle: saline with Tween-80).

Take `COc1ccc(-c2cc(=O)c3ccc4cc(OC)c(OC)cc4c3o2)cc1`: the survivor count (dose: 25.0 mg/kg/injection, schedule: Q01DX009 (ip), vehicle: other) is listed as 6 of 6 and the survivor count (dose: 50.0 mg/kg/injection, schedule: Q01DX009 (ip), vehicle: other) was 6 of 6.

As for `O=S1(=O)CC(N2CCCCC2)C2=C(O1)c1ccccc1SC2` (stereo unspecified), the survivor count under setting [8] was 6 of 6.

Turning to `COc1ccc(/C(C#N)=C2\OC(=O)c3ccccc32)cc1OC`, the survivor count reads like this: (dose: 25.0 mg/kg/injection, schedule: Q01DX009 (ip), vehicle: saline with Tween-80) 6 of 6; under setting [9], 6 of 6; under setting [10], 5 of 6; under setting [8], 6 of 6.

For `CC(/C=C/c1ccccc1)=Nc1ccccc1`, the T/C under setting [8] is 126 % of control. In addition, the survivor count (dose: 400.0 mg/kg/injection, schedule: Q01DX009 (ip), vehicle: saline with Tween-80) was 2 of 6.

Turning to `CCN=C=NCCCN(C)C`, the survivor count (dose: 120.0 mg/kg/injection, schedule: Q01DX009 (ip), vehicle: saline) is 0 of 6.

For the molecule `CCN(CC)CCNC(=S)NNc1nc(C)ccc1[N+](=O)[O-]`, the survivor count is 6 of 6 (dose: 100.0 mg/kg/injection, schedule: Q01DX009 (ip), vehicle: Klucel (hydroxypropylcellulose) (HPC)) and 2 of 6 (dose: 200.0 mg/kg/injection, schedule: Q01DX009 (ip), vehicle: Klucel (hydroxypropylcellulose) (HPC)).

For `O=C(CCCN1CCC(C(O)c2ccc(F)cc2)CC1)c1ccc(F)cc1` (stereo unspecified), the survivor count is 0 of 5 (dose: 12.5 mg/kg/injection, schedule: Q01DX005 (ip), vehicle: saline with Tween-80); 0 of 5 (dose: 25.0 mg/kg/injection, schedule: Q01DX005 (ip), vehicle: saline with Tween-80); 0 of 5 (dose: 50.0 mg/kg/injection, schedule: Q01DX005 (ip), vehicle: saline with Tween-80); 2 of 5 (dose: 100.0 mg/kg/injection, schedule: Q01DX005 (ip), vehicle: saline with Tween-80); 0 of 5 (dose: 200.0 mg/kg/injection, schedule: Q01DX005 (ip), vehicle: saline with Tween-80).

As to `CCCCC(CC)COCCCNCC(=O)O` (stereo unspecified), the survivor count (dose: 240.0 mg/kg/injection, schedule: Q01DX005 (ip), vehicle: saline) was 0 of 6.

With `COC(=O)CCCCCCCCCCCCCCCCCCCCCCCCCCCCCCCCC(=O)OC`, the survivor count is, setting by setting: (dose: 100.0 mg/kg/injection, schedule: Q01DX001 (ip), vehicle: Klucel (hydroxypropylcellulose) (HPC)) 6 of 6; (dose: 200.0 mg/kg/injection, schedule: Q01DX001 (ip), vehicle: Klucel (hydroxypropylcellulose) (HPC)) 6 of 6; (dose: 400.0 mg/kg/injection, schedule: Q01DX001 (ip), vehicle: Klucel (hydroxypropylcellulose) (HPC)) 6 of 6.

`C=C(Cl)C(=NC1CCCCC1)NC(C)(C)C`: the T/C (dose: 6.25 mg/kg/injection, schedule: Q01DX005 (ip), vehicle: Klucel (hydroxypropylcellulose) (HPC)) was 126 and 127 % of control. Besides, the survivor count runs as follows: under setting [4], 2 of 6; under setting [5], 0 of 5; under setting [6], 0 of 5; under setting [3], 0 of 5.

Take `COc1cccc2c1C(=O)c1c(O)c3c(c(O)c1C2=O)C[C@@](O)(C(=O)COC(C)=O)C[C@@H]3OC1CC(N)C(O)C(C)O1` (stereo partly specified): the survivor count (dose: 3.0 mg/kg/injection, schedule: Q01DX009 (ip), vehicle: saline sonified) is recorded as 6 of 6.

Turning to `CCCCCCCCCCCCCCCC(=O)N(CCCCN(CCCN(C)C)C(=O)CCCCCCCCCCCCCCC)CCCN(C)C`, the survivor count under setting [9] is given as 4 of 6.

In the case of `Cc1ccc(C[N+](C)(C)C)cc1`, the survivor count reads like this: under setting [10], 1 of 6; under setting [8], 0 of 6.
